Assay results taken from PubChem BioAssay AID540256 (National Center for Advancing Translational Sciences (NCATS), 2011).
Hit rate of the full screen: of about 300,000 compounds, about 3,700 (1.2%) were called active. Inconclusive results, whose numbers are uncertain, are shown with a selection of clear calls. Calls come from the whole dose curve; tested in HEK293 cells. Where the call is inconclusive, the potency comes from a doubtful curve fit.

Experiment: qHTS for Inhibitors of binding or entry into cells for Lassa Virus; note: nearly all actives have a fitted effect of over 50% in size
Conditions: Lassa virus pseudotype entry inhibition, cell reporter; activity change, negative = inhibition: at 37.9 µM (top of the series) unless noted
% is set by controls: 0 for no effect and ±100 for the full control effect; potency is the fitted concentration of half-maximal effect.

SMILES | Potency | activity change, negative = inhibition
COC(=O)c1ccc2c(c1)C(=O)/C(=C/c1ccc(O)cc1)O2 | inconclusive: 35.5 µM [inhibitor, single point] | –
CCOC(=O)c1cc(=O)c2ccc(OCC(=O)Nc3ccccc3)cc2o1 | inconclusive: 1.58 µM [inhibitor, partial curve, poor fit] | –
COc1ccccc1NC(=O)c1ccccc1-c1nc(-c2ccccc2OC)no1 | inconclusive: 29.1 µM [inhibitor, single point] | –
COc1ccc(NC(=O)CC2C(=O)N(c3cccc(OC)c3)C(=O)N2Cc2cccnc2)cc1 (configuration not stated) | – | inactive: -0.173% [at 46.1 µM]
CCN(CC)CCCNC(=O)/C(=C\c1cccn1C)NC(=O)c1cccs1 | – | inactive: -11.5%
CN(C)CC(C)(C)CNC(C(=O)Nc1ccc(Cl)cc1C(F)(F)F)c1ccccc1 (configuration not stated) | – | inactive: 1.99% [at 46.1 µM]
CCOC(=O)C1CCCN(C(=O)CN2C(=O)/C(=C/c3ccc(OC)cc3)Oc3ccccc32)C1 (configuration not stated) | inconclusive: 31.6 µM [inhibitor, single point] | –
CN(CCOc1ccccc1)CC(=O)Nc1cccc(C#N)c1 | – | inactive: 2.37%
COc1ccc(OC)c(/C=C/C(=O)Oc2ccc(C(C)=O)cc2)c1 | – | inactive: 14.1%
O=C(N/N=C/c1cccc(Oc2ccccc2)c1)c1cccc(Br)c1 | inconclusive: 29.1 µM [inhibitor, single point] | –
COc1ccc(C(=O)Nc2nc3nc(C)c(Cl)c(=O)n3[nH]2)cc1 | inconclusive: 14.1 µM [activator, partial curve, poor fit] | –
CC(C)NC(=S)N/N=C/c1cc(Br)ccc1O | – | inactive: -8.52%
COc1ccc(CN2CN=C(Nc3nc4ccccc4s3)NC2)cc1 | inconclusive: 0.092 µM [inhibitor, full curve] | –
CNc1nnc(-c2cc3ccccc3oc2=O)s1 | inconclusive: 0.73 µM [activator, partial curve, poor fit] | –
Cc1ccc(S(=O)(=O)N2CCN(C(=O)CSc3ncn[nH]3)CC2)cc1 | – | inactive: 1.07%
CCc1cc2cc(C(=O)N3CCN(c4ccccc4)CC3)sc2s1 | inconclusive: 17.8 µM [activator, partial curve, poor fit] | –
Cc1oc(-c2ccccc2Cl)nc1CS(=O)(=O)CC(=O)NC(C)CCc1ccccc1 (configuration not stated) | – | inactive: -15.6% [at 46.1 µM]
Cc1cccc(CN2C(=O)c3ccccc3S(=O)(=O)c3ccc(C(=O)N4CCCC4)cc32)c1 | inconclusive: 25.1 µM [inhibitor, single point] | –
N#Cc1c(NC(=O)CN2CCOCC2)oc(-c2ccccc2)c1-c1ccccc1 | inconclusive: 11.2 µM [inhibitor, single point] | –
COc1ccc(C(=O)On2c(-c3ccc(Br)cc3)nc3ccccc3c2=O)cc1 | inconclusive: 11.2 µM [inhibitor, partial curve, poor fit] | –
O=C(COc1ccc(Cl)cc1)Nc1nc(-c2ccc(S(=O)(=O)N3CCOCC3)cc2)cs1 | inconclusive: 29.1 µM [inhibitor, single point] | –
COc1ccc(/C=N/Nc2nc(N3CCCC3)nc(N3CCCC3)n2)c(OC)c1OC | – | inactive: 0.596%
Cc1onc(-c2c(Cl)cccc2Cl)c1C(=O)N1CCCc2ccccc21 | inconclusive: 2.06 µM [inhibitor, full curve, poor fit] | –

SMILES | Potency | activity change, negative = inhibition
COc1cc(C2=NOC(C(=O)Nc3ccc(C(C)=O)cc3)C2)cc(OC)c1OC (configuration not stated) | – | inactive: 14.4%
Cc1ccc(C(=O)Oc2ccccc2N2CCOCC2)cc1 | inconclusive: 15.8 µM [activator, single point] | –
COC(=O)c1c(-c2ccc(F)cc2)noc1N | – | inactive: 5.75%
COc1ccc(C(=O)N2CCc3cc(OC)c(OC)cc3C2c2ccc(OC)c(OC)c2)cc1 (configuration not stated) | active: 5.01 µM | –
CS(=O)(=O)N1CCCC(c2nc(-c3ccc(S(=O)(=O)NCc4ccccc4)cc3)no2)C1 (configuration not stated) | inconclusive: 18.3 µM [inhibitor, single point] | –
CC(C)(C)c1ccc(C(=O)NCC(=O)OCC(=O)NC(=O)NC2CCCC2)cc1 | inconclusive: 1.78 µM [inhibitor, partial curve, poor fit] | –
Cc1ccc(N2CCCCn3c2nc2c3c(=O)[nH]c(=O)n2C)cc1 | inconclusive: 1 µM [inhibitor, partial curve, poor fit] | –
CC1CCCCN1S(=O)(=O)c1ccc(C(=O)Nc2nnc(-c3ccco3)o2)cc1 (configuration not stated) | inconclusive: 22.4 µM [inhibitor, single point] | –
Cc1ccccc1NC(=O)CCc1c(C)nc2c(c1C)c(=O)n(C)c(=O)n2C | inconclusive: 22.4 µM [activator, single point] | –
O=C(Nc1ccc(N2CCCCC2)c(Cl)c1)c1ccc(N2CCOCC2)c([N+](=O)[O-])c1 | inconclusive: 20.6 µM [inhibitor, single point] | –
COc1ccc(-c2nc(NC(=O)c3nc4nccc(C)n4n3)sc2C)cc1 | – | inactive: -0.147%
O=C(Nc1cccc2cccnc12)c1cc(F)c(F)cc1Cl | – | inactive: -14.5% [at 46.1 µM]
O=C(OCCN1CCCCC1)c1ccc(Cl)cc1 | – | inactive: 2.75%
O=C(Cc1ccc([N+](=O)[O-])cc1)Nc1ccc(Cl)cc1 | – | inactive: 2.8%
CCc1ccc(OCC(=O)Nc2c(C(=O)c3ccccc3)oc3ccccc23)cc1 | inconclusive: 35.5 µM [activator, single point] | –
Cc1cccc2cc(CN(Cc3cccs3)S(=O)(=O)c3ccc4c(c3)OCCO4)c(=O)[nH]c12 | inconclusive: 35.5 µM [inhibitor, single point] | –
CN(CC(=O)N1CCN(c2ccccn2)CC1)S(=O)(=O)c1ccccc1 | inconclusive: 35.5 µM [activator, single point] | –
CC(C)c1ccc(S(=O)(=O)N(C)C2(C)CCS(=O)(=O)C2)cc1 (configuration not stated) | inconclusive: 35.5 µM [inhibitor, single point] | –
CCN(CC)CC(C)(C)C(=O)/C=C/c1ccc(/C=C/C(=O)C(C)(C)CN(CC)CC)cc1 | active: 3.55 µM | –
COc1ccc(CCNC(=O)c2cc3c(=O)n4cccc(C)c4nc3s2)cc1OC | inconclusive: 5.62 µM [inhibitor, single point] | –
COc1ccccc1NS(=O)(=O)c1cc(NC(=O)c2ccc(NC(C)=O)cc2)ccc1N1CCOCC1 | inconclusive: 11.2 µM [inhibitor, single point] | –
Cc1cc(N=Cc2c(O)n(-c3ccc4c(c3)OCO4)c(=O)c3ccccc23)ccn1 | inconclusive: 32.6 µM [inhibitor, single point] | –
CCOC(=O)Cc1csc(NC(=O)/C=C\c2ccccc2Cl)n1 | inconclusive: 12.6 µM [inhibitor, partial curve, poor fit] | –

Fetched one by one from the entries so far (3):
SMILES | Potency | activity change, negative = inhibition
COc1ccc(CCNC(=O)c2cc3c(=O)n4cccc(C)c4nc3s2)cc1OC | inconclusive: 5.62 µM [inhibitor, single point] | –
CCN(CC)CCCNC(=O)/C(=C\c1cccn1C)NC(=O)c1cccs1 | – | inactive: -11.5%
O=C(COc1ccc(Cl)cc1)Nc1nc(-c2ccc(S(=O)(=O)N3CCOCC3)cc2)cs1 | inconclusive: 29.1 µM [inhibitor, single point] | –

In the list so far, these have a cyano group:
SMILES | Potency | activity change, negative = inhibition
CN(CCOc1ccccc1)CC(=O)Nc1cccc(C#N)c1 | – | inactive: 2.37%
N#Cc1c(NC(=O)CN2CCOCC2)oc(-c2ccccc2)c1-c1ccccc1 | inconclusive: 11.2 µM [inhibitor, single point] | –

The list goes on.

SMILES | Potency | activity change, negative = inhibition
CCOc1ccc(Cn2c(CNS(=O)(=O)c3cccs3)nc3cccnc32)cc1 | – | inactive: 3.86% [at 46.1 µM]
CCCN1CCc2c(sc(NC(=O)CCS(=O)(=O)c3ccccc3)c2C(N)=O)C1 | – | inactive: 2.07%
CC(C)=CCC/C(C)=C/Cc1c(O)ccc(C(=O)/C=C/c2ccc(O)cc2)c1O | inconclusive: 13 µM [inhibitor, partial curve] | –
O=C(c1cc2c(s1)-c1ccccc1OC2)N1CCC2(CC1)OCCO2 | – | inactive: 33.9% [at 14.3 µM]
CCC(=O)OCCNc1cc(Sc2nc3ccccc3[nH]2)c2nonc2c1[N+](=O)[O-] | inconclusive: 11.2 µM [inhibitor, partial curve, poor fit] | –
COc1ccc(S(=O)(=O)N2CCCCCC2)cc1N(C)S(=O)(=O)c1ccccc1 | inconclusive: 8.91 µM [inhibitor, partial curve, poor fit] | –
CSc1cccc(NC(=O)C2CCN(S(=O)(=O)c3ccc(F)cc3)CC2)c1 | inconclusive: 7.3 µM [inhibitor, partial curve] | –
Cc1cccc(-c2nc(CS(=O)CC(=O)NCCc3ccc(Cl)cc3)c(C)o2)c1 (configuration not stated) | inconclusive: 10 µM [inhibitor, partial curve, poor fit] | –
CSc1nnc(NC(=O)c2nc(S(=O)(=O)Cc3ccc(C)cc3)ncc2Cl)s1 | inconclusive: 11.2 µM [inhibitor, partial curve, poor fit] | –
CCn1ccc2cc(S(=O)(=O)N3CCCN(C(=O)Nc4ccc(C)cc4)CC3)ccc21 | inconclusive: 10 µM [inhibitor, partial curve, poor fit] | –
CCN(CC)S(=O)(=O)c1ccc(NC(=O)[C@H](CCSC)N2Cc3ccccc3C2=O)cc1 | – | inactive: -17.1% [at 46.1 µM]
Clc1ccc(C[n+]2cc(-c3ccccc3)n3c2CCC3)cc1Cl | inconclusive: 35.5 µM [inhibitor, single point] | –
CCOc1ccc(/C=C2\SC(=S)NC2=O)cc1OC | – | inactive: 3.29%
Cc1ccc(NS(=O)(=O)c2cc(NC(=O)C(C)Oc3ccccc3)ccc2C)c(C)c1 (configuration not stated) | inconclusive: 23.1 µM [inhibitor, single point] | –
C=CCn1c(O)c(N=Nc2c(C)n(C)n(-c3ccccc3)c2=O)c(=O)[nH]c1=S | inconclusive: 15.8 µM [inhibitor, single point] | –
CC(Cc1cccnc1)NC(=O)c1cc(COc2ccc(F)cc2F)on1 (configuration not stated) | – | inactive: 2.64%
O=C(c1cc(COc2ccc(F)cc2F)on1)N1CCCC(c2ccccc2)C1 (configuration not stated) | active: 7.08 µM | –
COc1ccc(NC(=O)CN(C)C(=O)c2cc(-c3ccccc3)nc3ccccc23)cc1 | inconclusive: 35.5 µM [inhibitor, single point] | –
CC(=O)c1sc(NC(=O)C2CC(=O)N(Cc3ccco3)C2)nc1-c1ccccc1 (configuration not stated) | inconclusive: 7.08 µM [inhibitor, full curve, poor fit] | –
CC1(C(=O)NC2CCCC2)CCC(=O)N1Cc1ccccc1 (configuration not stated) | – | inactive: 0.892%
CCCS(=O)(=O)c1c(S(=O)(=O)CCC)c2ccc(C(N)=O)cn2c1C(=O)c1ccc(OC)cc1 | inconclusive: 6.31 µM [inhibitor, single point] | –
